Results reported in patent US20100311756A1, “METHODS FOR DELAYING THE PROGRESSION OF AT LEAST ONE OF CARDIAC HYPERTROPHY, CARDIAC REMODELING OR LEFT VENTRICULAR FUNCTION OR THE ONSET OF HEART FAILURE IN SUBJECTS IN NEED OF TREATMENT THEREOF” (TAKEDA PHARMACEUTICALS NORTH AMERICA, INC., priority 2009, published 2010).

Experiments:
Format in all cases: in vivo
[1] = system: mice subjected to TAC or sham surgery; test: TAC or sham surgery in mice, Protocol 2: febuxostat or allopurinol for three weeks beginning seven days after TAC; details: for Body weight / Heart rate: drinking water (FBS 0.05 mg/ml, allopurinol 0.15 mg/ml) three weeks from day 7; for Average body weight increase: during the three-week treatment period
Excerpt: • Mice. Male C57/BL6 mice at 8-9 weeks of age were purchased from Jackson Laboratories (Bar Harbor, Me.) for use in this study. Mice were housed in an air-conditioned room with a 12-hour:12-hour light-dark cycle, received standard mouse chow, and drank tap water. This study was approved by the Institutional Animal Care and Use Committee of the University of Minnesota. • Experimental Protocol 1. This protocol was designed to determine whether febuxostat (2-[3-cyano-4-(2-methylpropoxy)phenyl]-4-methylthiazole-5-carboxylic acid) treatment, beginning immediately after the onset of acute pressure overload, could protect against transverse aortic constriction (TAC)-induced left ventricular (LV) hypertrophy, dysfunction and mortality. Three treatment groups were included (See Table 1, below): sham-operated mice (n=20), TAC mice treated with vehicle (0.5% methylcellulose) (n=30), and TAC mice treated with febuxostat (suspension in 0.5% methylcellulose) (n=30). To generate LV hypertrophy in a short time period with a significant incidence of cardiac mortality, TAC was created by ligating the transverse aorta against a 27 G needle to create severe LV pressure overload. Since mice tend to take in less water and food during the first 1-3 days after the TAC procedure, febuxostat (5 mg/kg/day in 250 μl vehicle) or vehicle (250 μl) was administered daily by oral gavage for a total of 8 days, with the first dose administered on the day of the surgery after the animal awoke from anesthesia (˜60 min after the TAC procedure). On the eighth day, LV function was assessed by echocardiography approximately 1 hour after the last febuxostat or vehicle dose. Approximately 3 hours after echocardiographic evaluation (4 hours after the last febuxostat or vehicle dose), the mice were weighed and blood samples collected. The animals were euthanized and the heart and lungs excised; the right and left atria were trimmed away, and the ventricles and lungs were weighed. Tissue from the left ventricle was used for histological evaluation and Western blots. • Experimental Protocol 2. This protocol was designed to determine whether administration of febuxostat (FBS) or allopurinol (AL) beginning after the onset of cardiac hypertrophy, LV dysfunction and heart failure could exert a protective effect. For this protocol, mice subjected to TAC (using a 26 gauge (G) needle to generate moderate TAC) or sham surgery were divided into six experimental groups as described in Table 1, below. Beginning seven days after TAC, animals were treated with vehicle (0.01 mg/ml NaCl, equivalent salt content as in the FBS drinking water), FBS (0.05 mg/ml) or AL (0.15 mg/ml) in drinking water for three weeks. Following three weeks of treatment, ventricular function was assessed by echocardiography. Blood samples and cardiac tissue were collected during 2-3 hours after the echocardiographic evaluation as described previously in Protocol 1.
• Minimally Invasive TAC Procedure. TAC was performed using the minimally invasive suprasternal approach described by Hu et al. (See, Hu et al., Am. J. Physiol. Heart Circ. Physiol., 3:H1261-9 (2003)). Mice were anesthetized with a mixture of 80 mg/kg ketamine and 30 mg/kg xylazine intraperitoneally. A horizontal incision was made at the level of the suprasternal notch to allow direct visualization of the transverse aorta without entering the pleural space. With the aid of a dissecting microscope, aortic constriction was performed by ligating the aorta between the right innominate artery and the left carotid artery over a 27 G) needle using 5-0 silk suture. The needle was immediately removed after ligation, leaving the aortic constriction in place. The incision was closed and the animals were allowed to recover. Analgesia was provided before the mice awoke from anesthesia. Sham surgery utilized the same procedure but without aortic ligation. • Echocardiography.

[2] = system: post-myocardial infarction rabbits; test: Chronic xanthine oxidase inhibition following myocardial infarction (permanent coronary artery ligation) in rabbits; details: Day 49
Excerpt: • Animals Male New Zealand white rabbits (1-2 kg; Clerco Research Farms, Cincinnati, Ohio, USA) were housed in separate cages in an environmentally controlled facility. The animals were subjected to circadian light-dark cycles, maintained on standard rabbit chow (2030C, Harlan Teklad, Madison, Wis., USA) and provided water ad libitum.
The procedures used in this study were reviewed and approved by the Institutional Animal Care and Use Committee (IACUC) of QTest Labs for compliance with regulations and current accepted practices. All applicable sections of the Final Rules of the Animal Welfare Act regulations (Section 9 CFR) and the Public Health Service Policy on Humane Care and Use of Laboratory Animals (OPRR, NIH, 1986) were followed. At the end of the study, all animals were humanely euthanized in accordance with accepted guidelines of the American Veterinary Medical Association (See, American Veterinary Medicine Association (AVMA), 2000 Report of the AVMA Panel on Euthanasia, The Journal of the American Veterinary Medical Association, 218(5):669-696 (2001)). • Drugs Febuxostat and allopurinol (Sigma-Aldrich, St. Louis, Mo., USA) were each formulated as a suspension in 0.5% methylcellulose (Sigma-Aldrich, St. Louis, Mo.) as the vehicle. […] Allopurinol was given orally at 60 mg/kg. […] The rabbits were anesthetized with an intramuscular injection of ketamine (35 mg/kg)/xylazine (5 mg/kg) and pre-surgery enrofloxacin (12 mg/kg). Isoflurane (1-2%) was given during the surgery as required to maintain a deep level of anesthesia and the animals were allowed to breathe 100% oxygen. A limb lead electrocardiogram (ECG) was obtained to monitor sinus rhythm, heart rate, and J-point deviation. The rabbit was placed in dorsal recumbency, and the sternum was exposed by blunt dissection and then incised with scissors. […] Myocardial ischemia was confirmed by regional cyanosis of the myocardial surface and ST-segment elevation on the ECG. The sternum was closed, leaving the pericardial sac as it was. The muscle layers, subcutaneous layer and skin were then closed. […]

TAC mice = test: Transverse aortic constriction (TAC) in mice, Protocol 1: febuxostat for 8 days beginning ~60 min after TAC; details: 5 mg/kg/day oral gavage for 8 days from ~60 min after TAC
Excerpt: • Mice. Male C57/BL6 mice at 8-9 weeks of age were purchased from Jackson Laboratories (Bar Harbor, Me.) for use in this study. Mice were housed in an air-conditioned room with a 12-hour:12-hour light-dark cycle, received standard mouse chow, and drank tap water. This study was approved by the Institutional Animal Care and Use Committee of the University of Minnesota. • Experimental Protocol 1. This protocol was designed to determine whether febuxostat (2-[3-cyano-4-(2-methylpropoxy)phenyl]-4-methylthiazole-5-carboxylic acid) treatment, beginning immediately after the onset of acute pressure overload, could protect against transverse aortic constriction (TAC)-induced left ventricular (LV) hypertrophy, dysfunction and mortality. Three treatment groups were included (See Table 1, below): sham-operated mice (n=20), TAC mice treated with vehicle (0.5% methylcellulose) (n=30), and TAC mice treated with febuxostat (suspension in 0.5% methylcellulose) (n=30). To generate LV hypertrophy in a short time period with a significant incidence of cardiac mortality, TAC was created by ligating the transverse aorta against a 27 G needle to create severe LV pressure overload. […] On the eighth day, LV function was assessed by echocardiography approximately 1 hour after the last febuxostat or vehicle dose. […] Following three weeks of treatment, ventricular function was assessed by echocardiography. […]

[3] = delayed treatment: vehicle 21 days then oral FBS 10 mg/kg/day or AL 60 mg/kg/day for 28 days

## Oc1ncnc2[nH]ncc12 [allopurinol]
[1]; TAC mice
  Body weight: 24.8 ± 0.6 g
  Heart rate: 463 ± 10 beats/min
  Average body weight increase: 3.38 ± 0.37 g
[1]; sham mice
  Body weight: 24.4 ± 0.6 g
  Heart rate: 490 ± 16 beats/min
[1]; sham mice, listed as AL
  Body weight: no significant effects
[2]; [3]
  Body weight: 2.70 ± 0.04 kg

## Cc1nc(-c2ccc(OCC(C)C)c(C#N)c2)sc1C(=O)O [febuxostat, 2-[3-cyano-4-(2-methylpropoxy)phenyl]-4-methylthiazole-5-carboxylic acid]
TAC mice
  Body weight: 23.4 ± 0.9 g
  Heart rate: 415 ± 18 beats/min
[1]; TAC mice
  Body weight: 25.8 ± 0.4 g
  Heart rate: 454 ± 11 beats/min
  Average body weight increase: 2.93 ± 0.42 g
[1]; sham mice
  Heart rate: 504 ± 19 beats/min
[2]; [3]
  Body weight: 2.37 ± 0.13 kg
[2]; early treatment: FBS 10 mg/kg/day oral for 49 days from 1 day after coronary occlusion
  Body weight: 2.55 ± 0.06 kg
